Experimental data as given in paper PMC12802937.
Results are given in words; binding and its absence hold for the method and conditions named. Some results given as binding are weak or reduced against the parent protein; the word gives no strength.

Amino acid sequences for entries named in this document (tags omitted). Residues count along the entry.
UniProt Q5VTR2, residues 321-900: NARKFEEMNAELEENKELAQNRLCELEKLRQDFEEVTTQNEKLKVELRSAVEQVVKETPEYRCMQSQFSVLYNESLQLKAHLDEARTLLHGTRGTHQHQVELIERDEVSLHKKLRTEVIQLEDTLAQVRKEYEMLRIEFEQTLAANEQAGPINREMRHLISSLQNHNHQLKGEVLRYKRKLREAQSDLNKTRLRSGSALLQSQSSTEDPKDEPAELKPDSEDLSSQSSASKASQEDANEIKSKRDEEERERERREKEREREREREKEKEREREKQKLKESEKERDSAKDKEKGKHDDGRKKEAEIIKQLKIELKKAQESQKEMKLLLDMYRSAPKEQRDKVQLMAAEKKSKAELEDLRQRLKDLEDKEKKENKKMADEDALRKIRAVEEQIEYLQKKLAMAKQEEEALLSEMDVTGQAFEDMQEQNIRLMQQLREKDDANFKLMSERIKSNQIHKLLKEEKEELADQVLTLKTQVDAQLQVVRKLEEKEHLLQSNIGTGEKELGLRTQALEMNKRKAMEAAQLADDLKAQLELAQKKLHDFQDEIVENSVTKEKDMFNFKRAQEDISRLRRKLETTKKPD
UniProt O75150, residues 327-926: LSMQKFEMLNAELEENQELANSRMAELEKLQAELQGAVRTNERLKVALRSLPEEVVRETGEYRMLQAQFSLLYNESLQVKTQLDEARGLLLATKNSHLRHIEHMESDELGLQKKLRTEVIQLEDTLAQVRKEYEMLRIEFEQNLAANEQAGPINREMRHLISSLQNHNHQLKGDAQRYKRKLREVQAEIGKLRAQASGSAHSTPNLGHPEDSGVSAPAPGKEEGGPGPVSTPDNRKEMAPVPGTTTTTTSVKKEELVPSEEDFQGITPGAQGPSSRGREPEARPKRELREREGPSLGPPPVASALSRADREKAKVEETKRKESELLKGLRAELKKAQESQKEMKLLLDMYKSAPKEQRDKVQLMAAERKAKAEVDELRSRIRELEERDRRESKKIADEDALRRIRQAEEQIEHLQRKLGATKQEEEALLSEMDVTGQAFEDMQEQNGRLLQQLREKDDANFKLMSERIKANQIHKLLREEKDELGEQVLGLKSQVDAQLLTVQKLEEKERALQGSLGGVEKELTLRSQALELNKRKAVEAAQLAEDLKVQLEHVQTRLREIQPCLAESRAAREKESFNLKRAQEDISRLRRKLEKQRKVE

Molecular target: strep-SUMO-fused RNF20 residues 321–900 (human) (UniProt Q5VTR2)
Assay: sequential affinity co-purification; mixed E. coli cell extracts; strep-tactin resin (strep-SUMO-RNF20), then dextrin resin (MBP-RNF40), gel filtration

binding: binds
Substance: MBP-fused RNF40 residues 327–926 (from UniProt O75150 327-926) (domain or fragment)
